Laboratory results: article doi:10.1101/2022.12.17.520852
Results are given in words; binding and its absence hold for the method and conditions named. A result given as binding can be weak or reduced; the word gives no strength.

Protein sequences, listed by entry. Tags and fused reporters are not part of them. Lines headed by an entry give the natural chain unless they say otherwise; changes in a name come on top.
UniProt P49023: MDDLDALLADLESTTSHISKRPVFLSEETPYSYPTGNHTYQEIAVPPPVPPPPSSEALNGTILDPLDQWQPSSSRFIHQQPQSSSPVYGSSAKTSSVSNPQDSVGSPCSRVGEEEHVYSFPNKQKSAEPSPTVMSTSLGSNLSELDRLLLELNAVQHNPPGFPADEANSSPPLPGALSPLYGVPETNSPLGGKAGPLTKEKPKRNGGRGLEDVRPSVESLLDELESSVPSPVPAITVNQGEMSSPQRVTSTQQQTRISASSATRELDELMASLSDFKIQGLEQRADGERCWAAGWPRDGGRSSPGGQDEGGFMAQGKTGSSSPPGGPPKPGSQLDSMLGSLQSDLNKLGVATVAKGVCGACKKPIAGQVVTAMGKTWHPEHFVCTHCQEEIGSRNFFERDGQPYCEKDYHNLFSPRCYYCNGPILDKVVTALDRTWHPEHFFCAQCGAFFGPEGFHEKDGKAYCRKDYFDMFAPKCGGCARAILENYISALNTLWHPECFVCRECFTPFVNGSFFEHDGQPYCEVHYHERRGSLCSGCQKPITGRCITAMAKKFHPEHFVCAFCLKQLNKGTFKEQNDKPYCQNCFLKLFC
UniProt Q96AC1: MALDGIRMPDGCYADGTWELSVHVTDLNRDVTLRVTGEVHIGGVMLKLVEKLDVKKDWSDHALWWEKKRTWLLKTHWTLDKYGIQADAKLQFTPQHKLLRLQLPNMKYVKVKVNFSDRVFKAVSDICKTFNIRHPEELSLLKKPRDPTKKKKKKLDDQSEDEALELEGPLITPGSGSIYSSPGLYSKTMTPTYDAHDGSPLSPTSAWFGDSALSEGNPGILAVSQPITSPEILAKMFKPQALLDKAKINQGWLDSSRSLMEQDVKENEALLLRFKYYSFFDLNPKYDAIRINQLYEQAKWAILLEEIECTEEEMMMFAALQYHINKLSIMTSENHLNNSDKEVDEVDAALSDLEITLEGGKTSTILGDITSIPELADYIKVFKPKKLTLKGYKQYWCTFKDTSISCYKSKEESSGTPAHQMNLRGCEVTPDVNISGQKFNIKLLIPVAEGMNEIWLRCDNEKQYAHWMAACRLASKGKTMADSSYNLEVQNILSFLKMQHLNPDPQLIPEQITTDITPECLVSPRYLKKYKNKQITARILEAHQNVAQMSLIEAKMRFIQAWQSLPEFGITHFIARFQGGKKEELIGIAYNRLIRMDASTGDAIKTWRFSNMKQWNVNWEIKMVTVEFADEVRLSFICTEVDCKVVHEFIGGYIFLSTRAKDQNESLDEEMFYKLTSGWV

What was measured:
[1] = target: recombinant PXN ΔIDR1 (purified) (UniProt P49023); assay: pull-down
[2] = target: recombinant PXN ΔIDR2 (purified) (UniProt P49023); assay: pull-down

binding [1]: binds
binding [2]: binds
Substance: recombinant Kindlin-2 (purified) (from UniProt Q96AC1 1-680)
